Drawing on PMC6929986, this text covers binding for three molecules.

Chains of the proteins cited; added tags and fusions are not shown. Residues count along the entry.
UniProt Q5VYY1: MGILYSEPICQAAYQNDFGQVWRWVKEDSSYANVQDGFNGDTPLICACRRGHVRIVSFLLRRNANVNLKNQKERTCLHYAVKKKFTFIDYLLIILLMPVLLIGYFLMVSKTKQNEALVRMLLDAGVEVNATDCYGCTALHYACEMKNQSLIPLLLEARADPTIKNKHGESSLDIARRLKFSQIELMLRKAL
UniProt Q15118, residues 29-436: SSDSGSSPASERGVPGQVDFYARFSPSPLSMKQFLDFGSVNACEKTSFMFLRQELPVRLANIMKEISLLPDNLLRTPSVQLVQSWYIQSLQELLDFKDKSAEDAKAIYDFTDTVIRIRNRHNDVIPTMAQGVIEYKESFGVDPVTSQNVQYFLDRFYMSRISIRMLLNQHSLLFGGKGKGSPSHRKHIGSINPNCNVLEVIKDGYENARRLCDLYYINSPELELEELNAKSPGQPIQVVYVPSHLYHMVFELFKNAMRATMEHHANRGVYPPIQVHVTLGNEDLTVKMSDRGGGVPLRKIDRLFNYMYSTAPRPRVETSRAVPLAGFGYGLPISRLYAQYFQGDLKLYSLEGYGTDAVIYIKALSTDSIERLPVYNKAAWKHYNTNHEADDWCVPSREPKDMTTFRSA
UniProt P35579: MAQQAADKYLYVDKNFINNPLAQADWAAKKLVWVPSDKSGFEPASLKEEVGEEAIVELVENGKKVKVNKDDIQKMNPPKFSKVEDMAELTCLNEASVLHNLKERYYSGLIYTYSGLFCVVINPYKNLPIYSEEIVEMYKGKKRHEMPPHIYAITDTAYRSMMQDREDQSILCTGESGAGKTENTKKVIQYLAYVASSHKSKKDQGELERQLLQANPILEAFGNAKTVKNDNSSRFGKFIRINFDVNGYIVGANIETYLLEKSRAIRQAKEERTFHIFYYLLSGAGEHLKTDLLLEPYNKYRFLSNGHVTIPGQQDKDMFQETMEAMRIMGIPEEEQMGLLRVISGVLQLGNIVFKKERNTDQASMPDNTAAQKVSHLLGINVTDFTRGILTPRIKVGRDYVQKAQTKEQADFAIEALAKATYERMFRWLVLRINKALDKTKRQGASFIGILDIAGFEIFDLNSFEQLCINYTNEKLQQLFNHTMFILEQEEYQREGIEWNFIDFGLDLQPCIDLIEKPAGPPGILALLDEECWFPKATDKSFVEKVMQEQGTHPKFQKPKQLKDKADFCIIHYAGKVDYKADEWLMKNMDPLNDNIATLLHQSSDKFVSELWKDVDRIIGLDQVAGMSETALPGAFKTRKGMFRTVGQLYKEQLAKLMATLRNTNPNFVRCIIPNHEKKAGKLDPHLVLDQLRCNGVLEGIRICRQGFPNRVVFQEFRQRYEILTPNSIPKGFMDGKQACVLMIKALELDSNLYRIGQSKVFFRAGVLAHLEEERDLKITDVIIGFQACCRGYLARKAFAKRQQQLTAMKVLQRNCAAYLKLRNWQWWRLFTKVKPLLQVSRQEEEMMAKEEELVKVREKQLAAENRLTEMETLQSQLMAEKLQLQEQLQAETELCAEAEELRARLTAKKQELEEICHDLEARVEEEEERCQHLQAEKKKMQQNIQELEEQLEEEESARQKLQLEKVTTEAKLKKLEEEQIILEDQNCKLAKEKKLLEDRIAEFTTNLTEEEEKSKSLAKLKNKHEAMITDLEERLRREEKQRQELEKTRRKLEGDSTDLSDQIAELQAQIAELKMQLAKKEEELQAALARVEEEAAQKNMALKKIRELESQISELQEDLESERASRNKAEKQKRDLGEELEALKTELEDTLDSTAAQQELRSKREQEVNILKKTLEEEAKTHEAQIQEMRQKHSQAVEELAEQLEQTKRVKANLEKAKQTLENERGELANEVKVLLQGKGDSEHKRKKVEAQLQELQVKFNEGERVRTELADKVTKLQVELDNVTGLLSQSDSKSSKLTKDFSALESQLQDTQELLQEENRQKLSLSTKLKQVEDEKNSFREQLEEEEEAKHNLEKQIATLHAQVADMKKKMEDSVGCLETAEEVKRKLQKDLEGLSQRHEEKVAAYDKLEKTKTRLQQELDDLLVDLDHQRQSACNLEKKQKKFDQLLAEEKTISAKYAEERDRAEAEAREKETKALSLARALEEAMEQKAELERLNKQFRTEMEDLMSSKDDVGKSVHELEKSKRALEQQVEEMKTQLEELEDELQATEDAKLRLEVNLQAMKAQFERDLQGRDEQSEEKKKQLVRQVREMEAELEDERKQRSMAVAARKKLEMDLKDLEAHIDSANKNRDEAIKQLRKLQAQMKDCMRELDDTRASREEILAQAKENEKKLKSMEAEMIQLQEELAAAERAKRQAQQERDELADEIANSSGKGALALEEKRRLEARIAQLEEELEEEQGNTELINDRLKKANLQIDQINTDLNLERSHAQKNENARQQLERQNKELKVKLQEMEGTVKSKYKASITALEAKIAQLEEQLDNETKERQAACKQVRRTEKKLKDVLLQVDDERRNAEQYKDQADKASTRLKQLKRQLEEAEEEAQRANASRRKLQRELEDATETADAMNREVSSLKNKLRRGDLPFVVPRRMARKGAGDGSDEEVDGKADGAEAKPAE

The target in assay [1] is Halo-ANKRD22 fusion protein (Ankyrin repeat domain-containing protein 22 fused with Halo-tag) (UniProt Q5VYY1). The assay is described as follows: affinity purification with mass spectrometry; Halo-tag pull-down: RIPA lysate of RKO cells stably expressing Halo-ANKRD22 (conventional 2D or organoid culture) on HaloLink resin, 60 min at RT, five washes, elution with 1% SDS; eluted proteins identified by reverse-phase HPLC with an ion-trap mass spectrometer; control cells as negative control.

Assay [2] has the same target. The assay is described as follows: affinity purification with mass spectrometry; Halo-tag pull-down from the nuclear fraction of organoid-cultured SW620 and RKO cells stably expressing Halo-ANKRD22, mass spectrometry; eluent of a mixture of wild-type SW620 and RKO cells as negative control.
Assay [3] shares this target. The assay is described as follows: affinity purification with mass spectrometry; Halo-tag pull-down: RIPA lysate of RKO cells stably expressing Halo-ANKRD22 (conventional 2D or organoid culture) on HaloLink resin, 60 min at RT, five washes, elution with 1% SDS; eluted proteins identified by reverse-phase HPLC with an ion-trap mass spectrometer; control cells as negative control. The source holds these as a separate data set.

No constants are given. Whether binding was seen depends on the method and setting. Binding seen in cells or lysates may run through a third protein. These calls come from enrichment with a bait or labelling near it, and not all partners need be listed. For part of these data: Tags and fused reporters may be left off the sequences shown.

As for “pyruvate dehydrogenase kinase isoform 1 (PDK1) (from UniProt Q15118 29-436) (enzyme)”, in assay [1], the binding result is on record as “binds”.
On to Myosin-9 (from UniProt P35579 1-1960), for which the binding result in assay [2] is listed as “binds”.

B1: Extended Synaptotagmin-1 (E-Syt1) (protein, UniProt Q9BSJ8 1-1104)
chain: MERSPGEGPSPSPMDQPSAPSDPTDQPPAAHAKPDPGSGGQPAGPGAAGEALAVLTSFGRRLLVLIPVYLAGAVGLSVGFVLFGLALYLGWRRVRDEKERSLRAARQLLDDEEQLTAKTLYMSHRELPAWVSFPDVEKAEWLNKIVAQVWPFLGQYMEKLLAETVAPAVRGSNPHLQTFTFTRVELGEKPLRIIGVKVHPGQRKEQILLDLNISYVGDVQIDVEVKKYFCKAGVKGMQLHGVLRVILEPLIGDLPFVGAVSMFFIRRPTLDINWTGMTNLLDIPGLSSLSDTMIMDSIAAFLVLPNRLLVPLVPDLQDVAQLRSPLPRGIIRIHLLAARGLSSKDKYVKGLIEGKSDPYALVRLGTQTFCSRVIDEELNPQWGETYEVMVHEVPGQEIEVEVFDKDPDKDDFLGRMKLDVGKVLQASVLDDWFPLQGGQGQVHLRLEWLSLLSDAEKLEQVLQWNWGVSSRPDPPSAAILVVYLDRAQDLPLKKGNKEPNPMVQLSIQDVTQESKAVYSTNCPVWEEAFRFFLQDPQSQELDVQVKDDSRALTLGALTLPLARLLTAPELILDQWFQLSSSGPNSRLYMKLVMRILYLDSSEICFPTVPGCPGAWDVDSENPQRGSSVDAPPRPCHTTPDSQFGTEHVLRIHVLEAQDLIAKDRFLGGLVKGKSDPYVKLKLAGRSFRSHVVREDLNPRWNEVFEVIVTSVPGQELEVEVFDKDLDKDDFLGRCKVRLTTVLNSGFLDEWLTLEDVPSGRLHLRLERLTPRPTAAELEEVLQVNSLIQTQKSAELAAALLSIYMERAEDLPLRKGTKHLSPYATLTVGDSSHKTKTISQTSAPVWDESASFLIRKPHTESLELQVRGEGTGVLGSLSLPLSELLVADQLCLDRWFTLSSGQGQVLLRAQLGILVSQHSGVEAHSHSYSHSSSSLSEEPELSGGPPHITSSAPELRQRLTHVDSPLEAPAGPLGQVKLTLWYYSEERKLVSIVHGCRSLRQNGRDPPDPYVSLLLLPDKNRGTKRRTSQKKRTLSPEFNERFEWELPLDEAQRRKLDVSVKSNSSFMSRERELLGKVQLDLAETDLSQGVARWYDLMDNKDKGSS
As to B1, the binding entry in assay [3] is given as “binds”.
